PubChem BioAssay AID686943 – Drosophila RNAi Screening Center – 2013
The screen tested about 23,000 reagents; below is an unselected part of those that have a named target and a result. 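Extra replicates exist only for a retested subset of genes; insulin dose and duration not given; both raised and lowered dpERK matter.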 Not all columns of the deposit are shown. Reagent sequences are not shown. Not stated in the record: the amount of reagent, the time to read-out.

Screen: 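Search across the genome for regulators of signalling from receptor tyrosine kinase to ERK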 (primary screen)
Cells: Drosophila S2R+ haemocyte-like cells expressing YFP-tagged ERK (Rolled)
Reagent: long dsRNA against Drosophila genes
Treatment: insulin stimulation versus unstimulated cells; dose and duration not given
Measured: 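Antibody staining for doubly phosphorylated ERK divided by ERK-YFP signal, as plate z-scores, in insulin-treated and untreated cells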
Scale: replicate 1, z-score of dpERK with insulin and replicate 2, z-score of dpERK with insulin: higher = more active ERK per ERK-YFP after insulin

koi (GeneID 35594) [DRSC04980]: replicate 1, z-score of dpERK with insulin = -0.22; replicate 2, z-score of dpERK with insulin = 0.11
koi (GeneID 35594) [DRSC04991]: replicate 1, z-score of dpERK with insulin = -0.93; replicate 2, z-score of dpERK with insulin = 0.14
CG16781 (GeneID 31315) [DRSC18117]: replicate 1, z-score of dpERK with insulin = 0.18; replicate 2, z-score of dpERK with insulin = 0.79
mrva (GeneID 38808) [DRSC11009]: replicate 1, z-score of dpERK with insulin = 0.13; replicate 2, z-score of dpERK with insulin = 2.15
mrva (GeneID 38808) [DRSC21842]: replicate 1, z-score of dpERK with insulin = -0.25; replicate 2, z-score of dpERK with insulin = 0.42
spo (GeneID 38631) [DRSC11127]: replicate 1, z-score of dpERK with insulin = 0.21; replicate 2, z-score of dpERK with insulin = 0.08
Atg6 (GeneID 42850) [DRSC15798]: replicate 1, z-score of dpERK with insulin = -0.52; replicate 2, z-score of dpERK with insulin = -0.31

2 entries from above, ordered by “replicate 1, z-score of dpERK with insulin”, ascending:
koi (GeneID 35594) [DRSC04991]: replicate 1, z-score of dpERK with insulin = -0.93; replicate 2, z-score of dpERK with insulin = 0.14
koi (GeneID 35594) [DRSC04980]: replicate 1, z-score of dpERK with insulin = -0.22; replicate 2, z-score of dpERK with insulin = 0.11

The list goes on.
CG11594 (GeneID 38473) [DRSC08207]: replicate 1, z-score of dpERK with insulin = -0.23; replicate 2, z-score of dpERK with insulin = -1.25
CG14323 (GeneID 42121) [DRSC14802]: replicate 1, z-score of dpERK with insulin = -0.24; replicate 2, z-score of dpERK with insulin = 0.08
Gnptab (GeneID 35943) [DRSC07057]: replicate 1, z-score of dpERK with insulin = 1.12; replicate 2, z-score of dpERK with insulin = 0.23
CG7202 (GeneID 40376) [DRSC11818]: replicate 1, z-score of dpERK with insulin = 0.76; replicate 2, z-score of dpERK with insulin = 0.06
CG33003 (GeneID 318826) [DRSC22419]: replicate 1, z-score of dpERK with insulin = 0.17; replicate 2, z-score of dpERK with insulin = 0.04
